Data on 5 molecules can be found in publication PMC6756063, “TRiC/CCT chaperonins are essential for organ growth by interacting with insulin/TOR signaling in Drosophila” (Oncogene, 2019).

By UniProt entry, the sequences of proteins in these tests, tags left out. Where a name states a change or a piece, a line headed by the entry shows the natural chain unless it says otherwise.
UniProt P12613: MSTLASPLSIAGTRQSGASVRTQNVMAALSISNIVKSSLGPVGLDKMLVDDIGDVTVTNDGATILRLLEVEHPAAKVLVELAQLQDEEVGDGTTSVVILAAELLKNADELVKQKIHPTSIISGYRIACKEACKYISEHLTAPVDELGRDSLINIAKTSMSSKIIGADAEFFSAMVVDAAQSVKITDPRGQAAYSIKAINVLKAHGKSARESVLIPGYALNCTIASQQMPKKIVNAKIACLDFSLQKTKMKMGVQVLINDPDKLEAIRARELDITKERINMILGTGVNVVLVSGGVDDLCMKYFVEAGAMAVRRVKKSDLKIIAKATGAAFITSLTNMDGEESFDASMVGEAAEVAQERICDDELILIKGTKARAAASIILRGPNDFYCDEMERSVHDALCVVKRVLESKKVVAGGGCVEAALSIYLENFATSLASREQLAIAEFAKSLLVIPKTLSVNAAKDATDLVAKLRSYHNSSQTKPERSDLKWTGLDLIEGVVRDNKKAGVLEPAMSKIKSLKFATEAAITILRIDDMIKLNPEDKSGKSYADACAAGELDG
UniProt Q9VK45: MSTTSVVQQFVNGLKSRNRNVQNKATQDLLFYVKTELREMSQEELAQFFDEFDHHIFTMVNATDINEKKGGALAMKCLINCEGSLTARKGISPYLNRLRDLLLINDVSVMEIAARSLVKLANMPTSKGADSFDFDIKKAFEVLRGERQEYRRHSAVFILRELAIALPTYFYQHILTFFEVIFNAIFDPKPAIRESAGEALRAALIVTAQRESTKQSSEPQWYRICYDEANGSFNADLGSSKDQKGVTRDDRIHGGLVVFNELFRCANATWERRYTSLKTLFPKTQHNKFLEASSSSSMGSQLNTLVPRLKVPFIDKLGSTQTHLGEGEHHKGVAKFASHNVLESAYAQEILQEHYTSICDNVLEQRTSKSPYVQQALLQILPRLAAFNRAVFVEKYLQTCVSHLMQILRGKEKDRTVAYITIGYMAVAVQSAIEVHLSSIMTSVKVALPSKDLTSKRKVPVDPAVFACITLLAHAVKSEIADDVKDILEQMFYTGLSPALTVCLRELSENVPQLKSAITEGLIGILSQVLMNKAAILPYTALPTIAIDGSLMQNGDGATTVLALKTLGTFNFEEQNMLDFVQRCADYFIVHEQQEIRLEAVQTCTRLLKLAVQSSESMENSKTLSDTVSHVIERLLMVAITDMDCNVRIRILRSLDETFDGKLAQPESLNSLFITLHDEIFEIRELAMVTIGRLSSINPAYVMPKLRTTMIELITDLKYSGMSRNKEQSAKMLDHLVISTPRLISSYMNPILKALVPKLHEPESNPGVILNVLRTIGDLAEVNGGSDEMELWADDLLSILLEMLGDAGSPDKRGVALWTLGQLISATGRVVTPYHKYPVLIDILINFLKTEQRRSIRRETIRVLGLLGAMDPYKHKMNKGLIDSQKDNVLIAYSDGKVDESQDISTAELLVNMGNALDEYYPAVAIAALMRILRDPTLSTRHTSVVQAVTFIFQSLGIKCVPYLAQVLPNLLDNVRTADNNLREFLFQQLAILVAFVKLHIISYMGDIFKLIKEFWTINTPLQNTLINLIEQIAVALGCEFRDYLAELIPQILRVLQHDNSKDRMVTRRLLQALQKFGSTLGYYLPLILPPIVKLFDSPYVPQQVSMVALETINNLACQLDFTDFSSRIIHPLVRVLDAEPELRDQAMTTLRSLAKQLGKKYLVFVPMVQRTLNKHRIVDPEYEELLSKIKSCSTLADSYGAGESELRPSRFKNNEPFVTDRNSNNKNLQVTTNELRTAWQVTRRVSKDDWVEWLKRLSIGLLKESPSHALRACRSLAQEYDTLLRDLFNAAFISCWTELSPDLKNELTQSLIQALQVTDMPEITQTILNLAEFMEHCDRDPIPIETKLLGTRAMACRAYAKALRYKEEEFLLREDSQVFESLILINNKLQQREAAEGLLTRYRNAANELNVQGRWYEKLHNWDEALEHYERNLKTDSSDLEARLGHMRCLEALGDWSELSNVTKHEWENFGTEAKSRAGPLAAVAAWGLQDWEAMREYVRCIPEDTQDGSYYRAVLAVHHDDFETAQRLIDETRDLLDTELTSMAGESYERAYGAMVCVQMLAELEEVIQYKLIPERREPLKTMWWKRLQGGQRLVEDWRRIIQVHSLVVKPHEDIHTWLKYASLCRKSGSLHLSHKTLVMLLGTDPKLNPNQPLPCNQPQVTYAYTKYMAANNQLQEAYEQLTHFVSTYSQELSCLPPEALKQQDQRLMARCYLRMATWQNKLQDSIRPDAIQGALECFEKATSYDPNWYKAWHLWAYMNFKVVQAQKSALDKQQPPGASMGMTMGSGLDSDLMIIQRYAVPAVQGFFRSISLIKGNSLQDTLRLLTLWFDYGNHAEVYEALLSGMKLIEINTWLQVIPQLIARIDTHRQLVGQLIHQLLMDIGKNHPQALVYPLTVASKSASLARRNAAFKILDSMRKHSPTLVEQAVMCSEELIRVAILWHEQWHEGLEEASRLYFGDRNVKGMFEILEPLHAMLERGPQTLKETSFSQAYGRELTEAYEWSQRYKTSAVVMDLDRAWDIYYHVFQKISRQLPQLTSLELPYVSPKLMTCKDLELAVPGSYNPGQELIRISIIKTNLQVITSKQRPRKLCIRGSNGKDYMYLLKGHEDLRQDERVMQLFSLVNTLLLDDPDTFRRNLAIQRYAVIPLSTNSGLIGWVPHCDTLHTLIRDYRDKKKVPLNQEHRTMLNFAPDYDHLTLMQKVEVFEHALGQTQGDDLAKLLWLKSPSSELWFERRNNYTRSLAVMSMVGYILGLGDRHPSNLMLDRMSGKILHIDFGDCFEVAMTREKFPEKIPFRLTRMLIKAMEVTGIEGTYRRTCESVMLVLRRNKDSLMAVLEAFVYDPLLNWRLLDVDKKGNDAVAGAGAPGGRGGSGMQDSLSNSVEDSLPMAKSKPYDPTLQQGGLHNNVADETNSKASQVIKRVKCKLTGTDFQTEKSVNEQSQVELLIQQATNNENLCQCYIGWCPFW

No constants are given. Whether binding was seen depends on the method and setting. For some of these results: In cells and extracts the contact can be indirect. Some results given as binding are weak or reduced against the parent protein; the word gives no strength. For some of these results: Where a sequence is shown, tags or fusion partners need not be part of it.

Experiment [1] deals with T1, endogenous CCT4 (adult fly extracts) (Drosophila (endogenous in adult flies)) (UniProt Q9VK69).
T1 sequence: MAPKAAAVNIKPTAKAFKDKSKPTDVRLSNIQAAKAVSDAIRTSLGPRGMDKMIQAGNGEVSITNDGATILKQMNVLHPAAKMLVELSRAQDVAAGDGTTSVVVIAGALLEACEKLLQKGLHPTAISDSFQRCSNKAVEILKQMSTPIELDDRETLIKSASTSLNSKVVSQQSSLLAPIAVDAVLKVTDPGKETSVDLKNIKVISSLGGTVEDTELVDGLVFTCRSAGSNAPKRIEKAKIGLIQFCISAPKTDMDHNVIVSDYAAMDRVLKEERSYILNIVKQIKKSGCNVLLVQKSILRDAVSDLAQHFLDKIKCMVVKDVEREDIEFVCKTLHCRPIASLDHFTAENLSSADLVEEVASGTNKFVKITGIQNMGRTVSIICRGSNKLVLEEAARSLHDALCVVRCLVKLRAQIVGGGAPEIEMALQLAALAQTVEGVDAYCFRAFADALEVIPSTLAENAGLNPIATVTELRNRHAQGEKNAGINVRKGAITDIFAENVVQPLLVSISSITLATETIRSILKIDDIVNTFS
Put plainly: co-IP; endogenous proteins in adult fly extracts; 1 mg lysate in IP buffer (20 mM HEPES pH 7.4, 80 mM KCl, 0.2% NP-40), antibody overnight at 4 °C, Protein A beads.

Experiment [2] addresses T2, endogenous CCT4 (S2R+ cell lysates) (Drosophila (endogenous in S2R+)) (UniProt Q9VK69).
T2 sequence: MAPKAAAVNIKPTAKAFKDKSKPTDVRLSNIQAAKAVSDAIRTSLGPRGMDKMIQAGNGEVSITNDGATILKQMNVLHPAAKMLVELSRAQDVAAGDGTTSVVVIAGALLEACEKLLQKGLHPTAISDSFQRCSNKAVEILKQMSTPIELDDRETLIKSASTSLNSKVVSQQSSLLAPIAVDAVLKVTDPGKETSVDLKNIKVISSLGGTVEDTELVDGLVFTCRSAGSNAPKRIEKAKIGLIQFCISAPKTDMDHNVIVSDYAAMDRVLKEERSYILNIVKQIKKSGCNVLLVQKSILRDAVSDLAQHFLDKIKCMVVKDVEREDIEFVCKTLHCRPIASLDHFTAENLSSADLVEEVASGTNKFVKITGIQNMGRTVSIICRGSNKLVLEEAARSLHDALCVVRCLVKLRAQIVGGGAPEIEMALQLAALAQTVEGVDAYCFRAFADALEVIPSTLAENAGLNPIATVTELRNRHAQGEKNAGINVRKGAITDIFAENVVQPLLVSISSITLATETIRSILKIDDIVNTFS
Put plainly: co-IP; endogenous proteins in S2R+ cell extracts; 1 mg lysate in IP buffer (20 mM HEPES pH 7.4, 80 mM KCl, 0.2% NP-40), antibody overnight at 4 °C, Protein A beads.

The target in experiment [3] is T3, Myc-CCT4 (Drosophila) (UniProt Q9VK69).
T3 sequence: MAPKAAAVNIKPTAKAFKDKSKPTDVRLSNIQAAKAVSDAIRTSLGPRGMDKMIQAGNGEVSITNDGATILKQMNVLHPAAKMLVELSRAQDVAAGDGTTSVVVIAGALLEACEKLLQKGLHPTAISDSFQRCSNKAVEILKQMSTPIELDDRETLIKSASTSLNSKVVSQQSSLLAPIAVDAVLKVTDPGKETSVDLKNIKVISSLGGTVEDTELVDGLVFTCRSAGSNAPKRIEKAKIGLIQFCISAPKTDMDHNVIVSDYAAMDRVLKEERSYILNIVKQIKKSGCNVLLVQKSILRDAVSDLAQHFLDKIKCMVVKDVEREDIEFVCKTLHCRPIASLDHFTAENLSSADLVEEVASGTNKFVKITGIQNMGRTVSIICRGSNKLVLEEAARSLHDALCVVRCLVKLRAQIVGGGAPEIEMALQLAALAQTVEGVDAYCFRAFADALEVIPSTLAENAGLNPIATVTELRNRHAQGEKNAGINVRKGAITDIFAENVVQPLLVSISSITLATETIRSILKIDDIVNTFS
Put plainly: co-IP; extracts of S2 cells transfected with Myc-CCT4 and Rheb-V5; 1 mg lysate in IP buffer (20 mM HEPES pH 7.4, 80 mM KCl, 0.2% NP-40), antibody overnight at 4 °C, Protein A beads.

For experiment [4], the target named is endogenous CCT1 (adult fly extracts) (Drosophila (endogenous in adult flies)) (UniProt P12613). Description: co-IP; endogenous proteins in adult fly extracts; 1 mg lysate in IP buffer (20 mM HEPES pH 7.4, 80 mM KCl, 0.2% NP-40), antibody overnight at 4 °C, Protein A beads.
Experiment [5] concerns the target T4, MBP-Rheb^1–48 (Drosophila) (UniProt Q9VND8).
T4 sequence: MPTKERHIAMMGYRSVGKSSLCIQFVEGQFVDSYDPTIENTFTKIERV
Put plainly: pull-down; MBP-pulldown of MBP-tagged bait with GST-CCT4; pulldown buffer 20 mM Tris pH 7.5, 150 mM NaCl, 0.5 mM EDTA, 10% glycerol, 0.1% Triton X-100, 1 mM DTT; blots with anti-MBP and anti-GST; both purified.

In experiment [6] the target is T5, MBP-Rheb^Δ49–63 (Drosophila) (UniProt Q9VND8).
T5 sequence: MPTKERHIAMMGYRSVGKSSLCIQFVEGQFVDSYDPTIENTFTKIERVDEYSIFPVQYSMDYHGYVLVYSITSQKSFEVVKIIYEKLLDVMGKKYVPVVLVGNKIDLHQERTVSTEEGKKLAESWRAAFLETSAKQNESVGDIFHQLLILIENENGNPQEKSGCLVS
The experiment is described as above.

Regarding “endogenous TOR (adult fly extracts) (from UniProt Q9VK45 1-2470)”, in experiment [1], the binding result is “binds”.

For “endogenous TOR (S2R+ cell lysates) (from UniProt Q9VK45 1-2470)”, the binding entry in experiment [2] is on record as “binds”.

B1: Rheb-V5 (protein, UniProt Q9VND8 1-182)
chain: MPTKERHIAMMGYRSVGKSSLCIQFVEGQFVDSYDPTIENTFTKIERVKSQDYIVKLIDTAGQDEYSIFPVQYSMDYHGYVLVYSITSQKSFEVVKIIYEKLLDVMGKKYVPVVLVGNKIDLHQERTVSTEEGKKLAESWRAAFLETSAKQNESVGDIFHQLLILIENENGNPQEKSGCLVS
As to B1, the binding result in experiment [3] was “binds”.

B2: endogenous Rheb (adult fly extracts) (protein, UniProt Q9VND8 1-182)
chain: MPTKERHIAMMGYRSVGKSSLCIQFVEGQFVDSYDPTIENTFTKIERVKSQDYIVKLIDTAGQDEYSIFPVQYSMDYHGYVLVYSITSQKSFEVVKIIYEKLLDVMGKKYVPVVLVGNKIDLHQERTVSTEEGKKLAESWRAAFLETSAKQNESVGDIFHQLLILIENENGNPQEKSGCLVS
On to B2, for which the binding entry in experiment [4] and in experiment [1] was “binds” in each case.

B3: GST-CCT4 (protein, UniProt Q9VK69 1-533)
chain: MAPKAAAVNIKPTAKAFKDKSKPTDVRLSNIQAAKAVSDAIRTSLGPRGMDKMIQAGNGEVSITNDGATILKQMNVLHPAAKMLVELSRAQDVAAGDGTTSVVVIAGALLEACEKLLQKGLHPTAISDSFQRCSNKAVEILKQMSTPIELDDRETLIKSASTSLNSKVVSQQSSLLAPIAVDAVLKVTDPGKETSVDLKNIKVISSLGGTVEDTELVDGLVFTCRSAGSNAPKRIEKAKIGLIQFCISAPKTDMDHNVIVSDYAAMDRVLKEERSYILNIVKQIKKSGCNVLLVQKSILRDAVSDLAQHFLDKIKCMVVKDVEREDIEFVCKTLHCRPIASLDHFTAENLSSADLVEEVASGTNKFVKITGIQNMGRTVSIICRGSNKLVLEEAARSLHDALCVVRCLVKLRAQIVGGGAPEIEMALQLAALAQTVEGVDAYCFRAFADALEVIPSTLAENAGLNPIATVTELRNRHAQGEKNAGINVRKGAITDIFAENVVQPLLVSISSITLATETIRSILKIDDIVNTFS
Turning to B3, the binding entry in experiment [5] and in experiment [6] was “binds weakly” throughout.
